Experimental data from PMC8547044.
No constants are given. Whether binding was seen depends on the method and setting. In cells and extracts the contact can be indirect. These calls come from enrichment with a bait or labelling near it, and not all partners need be listed.

Amino acid sequences for entries named in this document (tags omitted). Residues count along the entry.
UniProt P29279, residues 27-349: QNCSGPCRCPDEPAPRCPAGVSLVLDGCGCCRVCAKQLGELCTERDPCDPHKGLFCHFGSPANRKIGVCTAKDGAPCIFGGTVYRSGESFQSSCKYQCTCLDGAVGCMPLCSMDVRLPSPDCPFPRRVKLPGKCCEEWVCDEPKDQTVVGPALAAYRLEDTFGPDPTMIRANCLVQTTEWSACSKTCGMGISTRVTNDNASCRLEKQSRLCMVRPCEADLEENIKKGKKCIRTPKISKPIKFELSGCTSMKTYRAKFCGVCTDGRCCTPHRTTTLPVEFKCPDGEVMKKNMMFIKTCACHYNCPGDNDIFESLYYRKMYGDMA
UniProt P07355: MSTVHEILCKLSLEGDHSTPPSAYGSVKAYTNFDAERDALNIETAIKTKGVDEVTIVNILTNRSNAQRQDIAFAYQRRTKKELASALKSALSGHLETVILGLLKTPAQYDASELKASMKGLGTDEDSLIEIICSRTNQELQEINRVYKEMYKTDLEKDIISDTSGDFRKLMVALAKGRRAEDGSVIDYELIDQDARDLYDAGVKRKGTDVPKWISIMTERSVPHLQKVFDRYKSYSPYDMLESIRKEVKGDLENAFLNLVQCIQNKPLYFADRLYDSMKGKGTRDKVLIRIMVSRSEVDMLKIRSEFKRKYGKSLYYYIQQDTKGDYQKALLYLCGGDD

Target: Connective tissue growth factor (CTGF) (human (endogenous in RA FLS)) (UniProt P29279)
Experiment: affinity purification with mass spectrometry; Co-IP with anti-CTGF mAb from RA FLS lysates (RIPA buffer), protein A agarose beads, SDS-PAGE, Nano-LC-MS/MS of gel pieces; IgG as control

binding: binds
Substance: Annexin A2 (ANXA2) (from UniProt P07355 1-339)
